One substance from PMC8805147 can be followed below.

By UniProt entry, the sequences of proteins in these tests, tags left out. Residues count along the entry.
UniProt P41317, residues 19-244: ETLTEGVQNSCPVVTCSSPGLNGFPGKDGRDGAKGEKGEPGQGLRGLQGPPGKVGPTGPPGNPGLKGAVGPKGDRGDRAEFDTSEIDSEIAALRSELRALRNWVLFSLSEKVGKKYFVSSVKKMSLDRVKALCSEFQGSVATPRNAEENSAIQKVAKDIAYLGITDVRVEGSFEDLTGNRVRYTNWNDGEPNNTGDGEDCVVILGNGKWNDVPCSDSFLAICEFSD
UniProt P03101: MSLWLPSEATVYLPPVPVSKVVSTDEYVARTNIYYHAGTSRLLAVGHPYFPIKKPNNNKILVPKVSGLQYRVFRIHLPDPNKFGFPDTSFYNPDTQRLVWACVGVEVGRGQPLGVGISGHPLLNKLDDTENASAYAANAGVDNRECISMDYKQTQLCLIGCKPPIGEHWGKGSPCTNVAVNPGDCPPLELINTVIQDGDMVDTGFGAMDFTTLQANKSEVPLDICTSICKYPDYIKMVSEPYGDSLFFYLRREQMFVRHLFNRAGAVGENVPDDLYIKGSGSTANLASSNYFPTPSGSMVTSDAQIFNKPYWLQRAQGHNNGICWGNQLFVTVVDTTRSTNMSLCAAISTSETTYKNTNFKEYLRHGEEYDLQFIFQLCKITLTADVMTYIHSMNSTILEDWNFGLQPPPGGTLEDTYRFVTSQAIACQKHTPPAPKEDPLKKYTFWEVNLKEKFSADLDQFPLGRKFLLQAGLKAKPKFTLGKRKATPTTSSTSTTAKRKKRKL

Results are given in words; binding and its absence hold for the method and conditions named. Some binding calls cover weakened binding; strength is not graded here.

The target of the assay is recombinant murine MBL2 (mannose-binding lectin), biotinylated (mouse) (UniProt P41317). As to the kind of experiment: BLI; biotinylated murine MBL2 (1 ug/mL) loaded on streptavidin sensors; dilutions of antigen formulations in solution; PBS with 1% BSA and 0.1 M CaCl; Octet RED96; both purified.

As to “human papillomavirus 16 L1 virus-like particles (HPV16 L1), unmodified (from UniProt P03101 1-505)”, the binding result is listed as “binds”.
